PubChem BioAssay AID1259254, NCATS, 2017
Assay: 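Gene knock-downs that lead to re-replication, shown by excess G2 DNA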 (primary screen). Cells: human HCT116 colorectal cancer cells. Reagent: single siRNA against human genes. Duration: 3 days. Detection: 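Nuclei stained with Hoechst and imaged; cell-cycle phase assigned by DNA content; G2 share scaled per plate, non-targeting siRNA 0%, GMNN siRNA 100%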. Scale: G2 robust z-score and G2 cells, % of GMNN control: higher = more G2 cells, more excess DNA replication. Hit rule: 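Active siRNAs have a G2 robust z of 5 or more median absolute deviations over the median, which in these data means about 38% or higher of GMNN control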.
The whole screen tested about 59,000 reagents; below is an unselected part. Over the whole deposit, about 1,550 (2.6%) are marked active. 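G2 share is only a proxy for re-replication; each gene was hit by three separate siRNAs, and active genes were retested.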 Entries without a mark were called inactive. The numbers tell different reagents against one gene apart. Further read-outs or replicates are left out here. Not given: the amount of reagent.

no.	target gene	reagent	G2 robust z-score	G2 cells, % of GMNN control
1	ZFPL1	1	-0.365	0.4
2	ZFPL1	2	-1.36	-6.57
3	ZFPL1	3	0.413	5.87
4	SHROOM4	1	-0.0306	2.75
5	SHROOM4	2	1.58	14.1
6	SHROOM4	3	0.108	3.73
7	DIP2B	1	-1.43	-7.07
8	DIP2B	2	-1	-4.09
9	DIP2B	3	-1.19	-5.44
10	LINC02609	1	-0.384	0.264
11	LINC02609	2	1.21	11.5
12	LINC02609	3	-0.565	-1.01

Continued, starting with the last 3 of the part before.
no.	target gene	reagent	G2 robust z-score	G2 cells, % of GMNN control
10	LINC02609	1	-0.384	0.264
11	LINC02609	2	1.21	11.5
12	LINC02609	3	-0.565	-1.01
13	OR4K2	1	-0.801	-2.67
14	OR4K2	2	-0.696	-1.93
15	OR4K2	3	0.0277	3.16
16	RNF139	1	0.775	8.42
17	RNF139	2	-0.854	-3.04
18	RNF139	3	1.3	12.1
19	COX7B	1	3.74	29.3
20	COX7B	2	-0.754	-2.34
21	COX7B	3	1.16	11.1
22	SMO	1	5.35 (active)	40.6
23	SMO	2	0.199	4.37
24	SMO	3	1.04	10.3
25	SS18L2	1	0.545	6.8
26	SS18L2	2	-0.251	1.2
27	SS18L2	3	-0.734	-2.2
28	POLR2E	1	4.08	31.7
29	POLR2E	2	0.329	5.28
30	POLR2E	3	0.285	4.97
